Measurements reported in US20020026034A1 (priority 1995, published 2002).

Assays:
Conditions in all cases: whole synthesis, scale 0.03 mmol, HCl
[1] = general procedure: Fmoc solid-phase peptide synthesis; Fmoc-L-Tyr-TCP; TBTU/NMM
[2] = general procedure: Fmoc solid-phase peptide synthesis; Fmoc-L-Ser(t-Bu)-TCP; TBTU/NMM
[3] = general procedure: Fmoc solid-phase peptide synthesis; Fmoc-L-Trp-TCP; TBTU/NMM

For Ada-Gly-Asp-Tyr, the crude mass [1] was 12 mg.
With Troc-Ada-Gly-Asp-Ser the crude mass [2] was 15 mg.
Substance Troc-Ada-Gly-Asp-Trp has a crude mass [3] of 16 mg.
